Source: patent publication US9018171B2, “Uses of an immunomodulatory protein (GMI) from Ganoderma microsporum” (Mycomagic Biotechnology Co., Ltd., priority 2010, dated 2015)

Tested on: NCI60 tumour cell lines
Assay: NCI60 in vitro screening, one dose, whole panel
Assay type: cell-based
Conditions: all cell lines

B1: GMI: immunomodulatory protein from Ganoderma microsporum, amino acid sequence SEQ ID NO: 3, manufactured by Mycomagic Biotechnology Co., Ltd. (protein, listed as Ganoderma microsporum)
chain: MSDTALIFTLAWNVKQLAFDYTPNWGRGRPSSFIDTVTFPTVLTDKAYTYRVVVSGKDLGVRPSYAVESDGSQKINFLEYNSGYGIADTNTIQVYVIDPDTGNNFIVAQWN
Growth Percent, Delta: 157.03%
Growth Percent, Range: 224.41%
